Each number is a percent effect as filed.
The controls that fix the scale are not given in the record; negative values are as filed.
Compounds were drawn at random from those tested, without regard to their results.

The chains behind the UniProt entries cited, without tags or fusion partners. Residues count along the entry.
UniProt I6X8D2, whole entry: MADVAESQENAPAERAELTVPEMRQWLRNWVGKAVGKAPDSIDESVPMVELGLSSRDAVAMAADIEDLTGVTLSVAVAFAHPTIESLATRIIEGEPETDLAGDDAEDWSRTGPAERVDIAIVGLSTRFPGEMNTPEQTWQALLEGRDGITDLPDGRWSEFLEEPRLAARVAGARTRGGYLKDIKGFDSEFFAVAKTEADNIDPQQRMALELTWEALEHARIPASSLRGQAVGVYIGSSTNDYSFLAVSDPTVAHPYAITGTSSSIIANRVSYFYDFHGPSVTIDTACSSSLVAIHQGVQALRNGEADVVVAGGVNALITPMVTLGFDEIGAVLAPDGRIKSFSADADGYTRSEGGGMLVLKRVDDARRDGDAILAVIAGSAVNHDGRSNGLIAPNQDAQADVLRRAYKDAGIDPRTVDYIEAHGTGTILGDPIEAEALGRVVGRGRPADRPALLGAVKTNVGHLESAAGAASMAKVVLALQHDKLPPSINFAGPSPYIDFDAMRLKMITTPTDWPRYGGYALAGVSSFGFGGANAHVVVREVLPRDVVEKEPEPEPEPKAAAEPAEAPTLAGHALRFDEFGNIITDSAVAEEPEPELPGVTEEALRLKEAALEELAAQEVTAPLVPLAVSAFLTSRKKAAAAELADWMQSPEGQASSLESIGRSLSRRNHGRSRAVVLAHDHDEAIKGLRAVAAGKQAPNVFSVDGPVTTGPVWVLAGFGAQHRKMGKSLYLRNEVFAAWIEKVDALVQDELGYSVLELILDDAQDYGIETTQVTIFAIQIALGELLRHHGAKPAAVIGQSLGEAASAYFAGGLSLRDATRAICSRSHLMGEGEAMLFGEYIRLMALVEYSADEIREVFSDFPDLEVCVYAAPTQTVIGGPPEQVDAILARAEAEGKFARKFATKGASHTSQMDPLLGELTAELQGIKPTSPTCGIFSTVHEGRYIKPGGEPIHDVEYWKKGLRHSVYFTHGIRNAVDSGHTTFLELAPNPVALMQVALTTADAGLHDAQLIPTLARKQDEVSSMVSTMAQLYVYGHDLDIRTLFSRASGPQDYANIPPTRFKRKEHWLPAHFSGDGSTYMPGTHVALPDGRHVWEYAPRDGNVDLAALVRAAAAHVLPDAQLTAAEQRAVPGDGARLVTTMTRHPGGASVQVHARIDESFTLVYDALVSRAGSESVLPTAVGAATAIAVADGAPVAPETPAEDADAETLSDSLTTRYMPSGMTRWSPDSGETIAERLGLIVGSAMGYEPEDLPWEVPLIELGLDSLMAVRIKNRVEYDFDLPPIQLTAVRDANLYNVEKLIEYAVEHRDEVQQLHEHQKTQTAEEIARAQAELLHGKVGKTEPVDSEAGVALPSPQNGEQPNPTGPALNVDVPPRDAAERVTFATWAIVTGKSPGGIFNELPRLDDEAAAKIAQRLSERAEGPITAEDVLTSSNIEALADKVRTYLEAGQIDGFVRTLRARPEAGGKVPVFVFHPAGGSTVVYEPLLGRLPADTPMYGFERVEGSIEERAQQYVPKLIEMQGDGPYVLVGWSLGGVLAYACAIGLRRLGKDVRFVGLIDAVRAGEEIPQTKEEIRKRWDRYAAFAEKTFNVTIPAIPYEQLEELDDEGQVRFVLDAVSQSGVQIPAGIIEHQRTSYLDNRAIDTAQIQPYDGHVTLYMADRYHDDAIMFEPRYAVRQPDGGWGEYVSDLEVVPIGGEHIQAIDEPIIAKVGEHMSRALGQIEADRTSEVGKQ
UniProt Q8IDJ8, 1-583: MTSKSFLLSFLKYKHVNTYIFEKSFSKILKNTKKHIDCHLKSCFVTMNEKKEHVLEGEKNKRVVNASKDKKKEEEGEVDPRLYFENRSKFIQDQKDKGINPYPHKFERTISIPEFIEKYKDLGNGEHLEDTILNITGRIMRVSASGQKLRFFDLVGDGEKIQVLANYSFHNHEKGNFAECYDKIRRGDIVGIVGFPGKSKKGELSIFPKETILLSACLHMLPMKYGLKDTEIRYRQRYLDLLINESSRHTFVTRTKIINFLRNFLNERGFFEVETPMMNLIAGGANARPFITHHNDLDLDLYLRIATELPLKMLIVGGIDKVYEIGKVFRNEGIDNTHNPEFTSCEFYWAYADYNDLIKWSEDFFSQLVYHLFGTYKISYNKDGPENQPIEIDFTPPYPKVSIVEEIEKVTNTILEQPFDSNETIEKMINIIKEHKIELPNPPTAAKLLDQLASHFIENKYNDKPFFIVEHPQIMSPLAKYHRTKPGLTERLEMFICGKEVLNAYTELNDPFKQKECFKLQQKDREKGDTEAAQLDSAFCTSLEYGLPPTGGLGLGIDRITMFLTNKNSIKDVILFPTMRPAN
UniProt P9WNZ1, whole entry: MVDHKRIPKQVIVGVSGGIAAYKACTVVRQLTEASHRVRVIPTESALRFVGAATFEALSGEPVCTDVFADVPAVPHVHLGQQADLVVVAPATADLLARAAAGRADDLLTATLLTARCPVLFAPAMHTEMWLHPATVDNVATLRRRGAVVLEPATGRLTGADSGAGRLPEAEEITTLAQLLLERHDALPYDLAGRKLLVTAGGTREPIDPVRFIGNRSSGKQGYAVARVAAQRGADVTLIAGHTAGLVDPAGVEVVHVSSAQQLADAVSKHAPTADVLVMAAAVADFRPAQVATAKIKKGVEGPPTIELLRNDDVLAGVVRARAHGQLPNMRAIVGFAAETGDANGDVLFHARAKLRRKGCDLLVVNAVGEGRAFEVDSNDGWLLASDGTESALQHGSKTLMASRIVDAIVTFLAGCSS

Toxoplasma: 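Assay of Toxoplasma gondii numbers, read through their beta-galactosidase reporter with a colour substrate. Concentration: 10 µM. Higher reads as fewer parasites (inferred from which compounds were picked for retests). Of about 67,000 compounds tested this way, about 260 (0.38%) reached 50% or more in at least one test.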
Pks13 thioesterase: 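Polyketide synthase Pks13, Mycobacterium tuberculosis (UniProt I6X8D2). Enzyme assay of the thioesterase domain of polyketide synthase 13; the read-out is not stated. Tested at 30 µM. Higher reads as stronger inhibition (inferred from which compounds were picked for retests). Of about 67,000 compounds tested this way, about 300 (0.46%) reached 50% or more in at least one test.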
PfKRS1: 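Lysine-tRNA ligase, Plasmodium falciparum 3D7 (UniProt Q8IDJ8). Enzyme assay of the cytosolic lysyl-tRNA synthetase in 384-well plates, read by luminescence. Concentration: 30 µM. Higher reads as stronger inhibition, judged from the few compounds that gave an IC50. Of about 69,000 compounds tested this way, about 49 (0.071%) reached 50% or more in at least one test.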
CoaBC: 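Coenzyme A biosynthesis protein CoaBC, Mycobacterium tuberculosis (UniProt P9WNZ1). Enzyme assay of CoaBC with a phosphate dye (Biomol Green) read at 650 nm. Concentration: 30 µM. Direction is inferred from only a few compounds that gave an IC50; most scored high, so higher reads as stronger inhibition. Most strong results did not repeat in a second test. Size under these conditions: about 67,000 compounds, about 40 of them at 50% or above in at least one test.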

{"structure": "CC(C)(C)c1cc(NC(=O)CN2CCn3c(nnc3C3CC3)C2)on1", "Toxoplasma": 19.99, "Pks13 thioesterase": -9.363, "PfKRS1": -0.6903, "CoaBC": 6.971}
{"structure": "CC(NC(=O)NCCCO)c1ccc2c(c1)NC(=O)CO2", "stereo": "stereo not shown", "Toxoplasma": -9.655, "Pks13 thioesterase": -3.281, "PfKRS1": 0.5788, "CoaBC": 3.675}
{"structure": "CCn1ncc2c1C(COC)N(C(=O)CCc1ccccc1)CC2.O=C(O)C(F)(F)F", "stereo": "stereo not shown", "Toxoplasma": -25.39}
{"structure": "O=C(O)C(F)(F)F.c1coc(CN2CCn3c(COCC4CC4)nnc3C2)c1", "Toxoplasma": 1.793}
{"structure": "CC(C)CN1CCCC1c1ccc(C(=O)Nc2ccc3[nH]nnc3c2)s1", "stereo": "stereo not shown", "Toxoplasma": 0.4607, "Pks13 thioesterase": -37.75, "PfKRS1": 0.9625, "CoaBC": -1.653}
{"structure": "Cc1nc(N2CCCC2)nc2c1CCN(C(=O)C1CCC1)CC2", "Toxoplasma": 23.87, "Pks13 thioesterase": 33.65, "PfKRS1": 3.209, "CoaBC": -1.003}
{"structure": "CC(C)c1nn(C)c(N(C)C)c1CNCc1cscn1.Cl", "Toxoplasma": 0.5882}
{"structure": "CS(=O)(=O)N1CCOC2(CCCN(c3cnccn3)C2)C1", "stereo": "stereo not shown", "Pks13 thioesterase": -15.33, "PfKRS1": 5.724, "CoaBC": -0.8811}
{"structure": "Cc1nc(NC2CCCC2)cc(C2CCN2C(=O)c2cccnc2)n1", "stereo": "stereo not shown", "Toxoplasma": 12.24, "Pks13 thioesterase": -42.14, "PfKRS1": 4.019, "CoaBC": 0}
{"structure": "Cc1cccc(CN2C[C@@H](NC(=O)C3CC3)[C@H]3OCCC[C@H]32)n1", "Pks13 thioesterase": -15.06, "PfKRS1": -6.118, "CoaBC": -3.579}
{"structure": "CC(=O)N1CCCn2nc(CNc3cc(C)ncn3)cc2C1", "Toxoplasma": -4.123, "Pks13 thioesterase": -5.89, "PfKRS1": 6.332, "CoaBC": 0.3968}
{"structure": "CC(=O)N1CCN(C(=O)C2CCN(c3cccnn3)C2)CC1", "stereo": "stereo not shown", "Toxoplasma": -3.221, "Pks13 thioesterase": -1.007, "PfKRS1": 0.6682, "CoaBC": -0.4866}
{"structure": "COCCN1CCCC12CCCN(c1ncccn1)C2", "stereo": "stereo not shown", "Toxoplasma": -1.129, "Pks13 thioesterase": -5.171, "PfKRS1": 1.511, "CoaBC": 1.474}
{"structure": "C/C=C(/C)C(=O)NS(=O)(=O)c1ccc(C(F)(F)F)cn1", "Toxoplasma": 1.242, "Pks13 thioesterase": -23.08, "PfKRS1": -0.5687, "CoaBC": 9.25}
{"structure": "CCCS(=O)(=O)N1CCN(C(C)(C)CO)CC1", "Toxoplasma": -36.86, "Pks13 thioesterase": -5.868, "PfKRS1": -3.453, "CoaBC": 5.817}
{"structure": "Cc1ccc(C(=O)N2CCC3(CC2)CC(N2CCOCC2)C3)cc1", "PfKRS1": 9.877, "CoaBC": 2.66}
{"structure": "O=C(Cc1ccc2c(c1)CCC2)N1CCCC1Cn1cccn1", "stereo": "stereo not shown", "Toxoplasma": -14, "Pks13 thioesterase": -3.769, "PfKRS1": 5.266, "CoaBC": 4.685}
{"structure": "Cc1ncc(C(=O)NCCNc2ncccn2)s1", "Toxoplasma": 20.24, "Pks13 thioesterase": -5.466, "PfKRS1": 2.507, "CoaBC": 0.4959}
{"structure": "[H][C@@]12OCCN(Cc3ccsc3)[C@@]1([H])CC[C@H]2Oc1ccccn1", "Toxoplasma": 1.859}
{"structure": "O=C1NCC2(CCCN(C(=O)Nc3cccc(-c4cscn4)c3)CC2)O1", "stereo": "stereo not shown", "Toxoplasma": 1.947, "Pks13 thioesterase": -27.63, "PfKRS1": -1.993, "CoaBC": -1.951}
{"structure": "Cc1nc2c(N(C)Cc3ccnn3C)nc(N)nc2n1C", "Toxoplasma": 12.37, "Pks13 thioesterase": -18.7, "PfKRS1": 6.455, "CoaBC": 1.033}
{"structure": "C[C@@H](NC(=O)c1ccc(Cl)cc1)c1onc(-c2cccnc2)c1C(=O)O.Cl", "Toxoplasma": -5.825}

Repeated from the top, 2 entries:

| structure | Toxoplasma | Pks13 thioesterase | PfKRS1 | CoaBC |
|---|---|---|---|---|
| `CC(C)(C)c1cc(NC(=O)CN2CCn3c(nnc3C3CC3)C2)on1` | 19.99 | -9.363 | -0.6903 | 6.971 |
| `CC(NC(=O)NCCCO)c1ccc2c(c1)NC(=O)CO2` (stereo not shown) | -9.655 | -3.281 | 0.5788 | 3.675 |

From ChEMBL document CHEMBL3988442, “University of Dundee, Small-Polar-MMV Screening Library” (2021).